This is one part of the list.

The chains behind the UniProt entries cited, without tags or fusion partners.
UniProt Q0JBA9, entry or part of it: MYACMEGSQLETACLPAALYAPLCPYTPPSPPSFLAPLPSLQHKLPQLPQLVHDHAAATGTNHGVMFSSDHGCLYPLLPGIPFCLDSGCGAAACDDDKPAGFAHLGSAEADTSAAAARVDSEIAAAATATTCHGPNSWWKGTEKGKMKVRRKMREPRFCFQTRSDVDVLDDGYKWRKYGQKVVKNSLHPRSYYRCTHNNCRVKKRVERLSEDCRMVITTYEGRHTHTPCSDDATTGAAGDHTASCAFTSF

The target of this assay is OsWRKY34 (Oryza sativa, UniProt Q0JBA9 1-250). The assay can be described thus: protein-binding microarray (RPBM); PBS, 2% BSA, 51.3 ng/ul salmon testes DNA, 50 uM zinc acetate, 200 nM TF, 25 C, 1 h; high values mean tight binding. Conditions: protein: recombinant; tags: N-terminal polyhistidine and DsRed monomer fusion (pET32a); label: CyDye5-dUTP incorporated in the synthesized complementary strand; 3' TTTTT single-stranded linker to array surface; dsDNA, one strand shown. The gist of the method: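 Using Ni–NTA, transcription factors fused N-terminally to polyhistidine and DsRed were purified after expression in E. coli BL21-CodonPlus. These were incubated at 200 nM with a blocked, double-stranded custom Agilent array for 1 h at 25 °C in a buffer containing 50 µM zinc acetate, and the array was washed. The binding signal is per-feature fluorescence intensity (arbitrary units) on an Axon 4000B scanner.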
As for “GAGAAGGAACCGCGACGTTTGCATAATTCCGTCACTAACACGGAGTCACCTAGTGCAG”, the binding signal was 8620 fluorescence intensity (a.u.).

As for “AGGGTGAACAGAAGAAGATGAATCTAACGGGTGGGTCTCACGGAGTCACCTAGTGCAG”, the binding signal was 10800 fluorescence intensity (a.u.).

Take “TGTATTGATATGTGTGGGATGGGTGAAAAATAAATTTGTTCGGAGTCACCTAGTGCAG”: the binding signal is 10100 fluorescence intensity (a.u.).

For the sequence “ATTTCACCAAGCCCAGTCCTCGAGCCCGCGTAACTGCAAACGGAGTCACCTAGTGCAG”, the binding signal was 9000 fluorescence intensity (a.u.).

As to “GCCCAAACCCATCCTCCGCCGCCAACGCGCCGAGAGCAAACGGAGTCACCTAGTGCAG”, the binding signal was 9290 fluorescence intensity (a.u.).

Regarding “CCATGGAGCAGGTCTCGTGCTTCGCCGCCGCCGCCGCCGCCGGAGTCACCTAGTGCAG”, the binding signal is 8080 fluorescence intensity (a.u.).

Regarding “ACCAACTCCACACACTCCAAAATAAGCTTTCACTTTCATCCGGAGTCACCTAGTGCAG”, the binding signal is 9060 fluorescence intensity (a.u.).

As for “CACTTCCTGGTCCCACCACCCCTCCGCCACCTTTGCATTCCGGAGTCACCTAGTGCAG”, the binding signal was 8730 fluorescence intensity (a.u.).

With “ATTACTGGAACTCTGTTGTATGTATTTCTGCATCACTTTCCGGAGTCACCTAGTGCAG”, the binding signal is 8490 fluorescence intensity (a.u.).

For the sequence “TGCCATATACTATAAATTTACTCGATCCGTCTCAAAATATCGGAGTCACCTAGTGCAG”, the binding signal is 10700 fluorescence intensity (a.u.).

In the case of “ATAATCATTCATTTCACCTTGTCTTCTCAATATATTTTGCCGGAGTCACCTAGTGCAG”, the binding signal was 9580 fluorescence intensity (a.u.).

Turning to “GATGAAATTGGTTTATAGCCTCTCGCTTAATGTTTTCTTTCGGAGTCACCTAGTGCAG”, the binding signal is 8160 fluorescence intensity (a.u.).

“CTCACACTAACCCACCCACCCCAGCCCTAGCTTTTTTTTTCGGAGTCACCTAGTGCAG”: the binding signal was 11700 fluorescence intensity (a.u.).

“AGAAGGGTGAAATTTTGAGAGGTTTGTTTGCTTTGAGATTCGGAGTCACCTAGTGCAG”: the binding signal is 8220 fluorescence intensity (a.u.).

Take “GGGGCAATAAGACGCTGTTCTCGTTTCAGTTTTCTTGCTCCGGAGTCACCTAGTGCAG”: the binding signal was 9580 fluorescence intensity (a.u.).

Consider “TATAGGTTTGGTGAGCCCATGCATGCATATTTTTAGTCTCCGGAGTCACCTAGTGCAG”, for which the binding signal is 9040 fluorescence intensity (a.u.).

Regarding “TTTTATTTTTAATCGGATACTCCTTTTTTTTTACCTTTTGCGGAGTCACCTAGTGCAG”, the binding signal was 8830 fluorescence intensity (a.u.).

For the sequence “TAGCTTCCTTTCGTCCTCATACGCCGCCGGTTCTGTTTCGCGGAGTCACCTAGTGCAG”, the binding signal was 8700 fluorescence intensity (a.u.).

As for “ATTTTGCTACCATTGGTGTTGTATTTGATTTATTTAGTGTCGGAGTCACCTAGTGCAG”, the binding signal is 9800 fluorescence intensity (a.u.).

As to “GTAAGTGTGTGTTCAGTGATGGCTATCGGTGGGTGGGTGGCGGAGTCACCTAGTGCAG”, the binding signal was 16600 fluorescence intensity (a.u.).

For “TGCAACCTGGTGTGTTCGGTAACGAGGGATGGGTAGTAAGCGGAGTCACCTAGTGCAG”, the binding signal is 8120 fluorescence intensity (a.u.).

Turning to “CATTGTTCATCCACTGTGGCTCATTTTCCTATGTTCCATCCGGAGTCACCTAGTGCAG”, the binding signal was 13300 fluorescence intensity (a.u.).

Consider “TGTTTCATAAAAGTTTTAAATGTTTCAGCTGCTGTTTTTTCGGAGTCACCTAGTGCAG”, for which the binding signal is 8790 fluorescence intensity (a.u.).

Turning to “CCCACGCATCGCCATGGACCATCTTCTCCGGCTCAGATCCCGGAGTCACCTAGTGCAG”, the binding signal is 8150 fluorescence intensity (a.u.).

For the sequence “AATTGCATGTTCTTGATTGGTCTGTGGTTGTGATCCGTCCCGGAGTCACCTAGTGCAG”, the binding signal is 8780 fluorescence intensity (a.u.).

For “GATCATTTGTCTTTCCCCTTAACTTCATATTGGGAAGTTGCGGAGTCACCTAGTGCAG”, the binding signal is 8130 fluorescence intensity (a.u.).

As for “GATAGCAAAATGGCCATGTCAATCTGATTGTTCATGACAACGGAGTCACCTAGTGCAG”, the binding signal is 8190 fluorescence intensity (a.u.).

With “CATCCACTGATCCGGCCGGCGATATCACCTCCATCCATCCCGGAGTCACCTAGTGCAG”, the binding signal was 9820 fluorescence intensity (a.u.).

Regarding “TGTGCGTCGTGTGCGTTCTGTTAGTTTGATTGAGTCGTGACGGAGTCACCTAGTGCAG”, the binding signal is 10800 fluorescence intensity (a.u.).

On to “AGAGAACCCCGTCTTCTCGCTGTCCTCGCATCCACTCCTGCGGAGTCACCTAGTGCAG”, for which the binding signal is 8900 fluorescence intensity (a.u.).

For “AACACGGCCGCCCTCGCCACGTCTTCCACCTCCAGCGATGCGGAGTCACCTAGTGCAG”, the binding signal is 8540 fluorescence intensity (a.u.).

As for “GCCAGTATCTCCTCTTCCTTCTCGACAGTTGTGTCCTCTCCGGAGTCACCTAGTGCAG”, the binding signal is 8580 fluorescence intensity (a.u.).

Turning to “GCTGAACCCAACCCACCACGTTGGCCGCCCACGCCGCGACCGGAGTCACCTAGTGCAG”, the binding signal was 10300 fluorescence intensity (a.u.).

As to “CTCCATAGGGCTTGGGGACATCTAACTCCTTACCACTTTTCGGAGTCACCTAGTGCAG”, the binding signal is 11000 fluorescence intensity (a.u.).

With “TTATGATTTTTGACATATTTGTCTCTCTTTTTTGTTATTTCGGAGTCACCTAGTGCAG”, the binding signal is 8300 fluorescence intensity (a.u.).

As to “CCCATGTCGTTGTCCCGCTCCTGCAAGAGATACACCTATGCGGAGTCACCTAGTGCAG”, the binding signal is 8490 fluorescence intensity (a.u.).

As for “GGTGGCACAGTTGCGGCGCTGCTCTCTTTCCGCTTCTACCCGGAGTCACCTAGTGCAG”, the binding signal is 8690 fluorescence intensity (a.u.).

In the case of “CTAAATCTCTCGTCGGCCCATCACACTAAGCAAAGAAGCCCGGAGTCACCTAGTGCAG”, the binding signal is 8080 fluorescence intensity (a.u.).

Consider “AATTCACTTTATATTTCAACACACTCCTTCACGCCTCCTTCGGAGTCACCTAGTGCAG”, for which the binding signal was 8060 fluorescence intensity (a.u.).

With “TTATTTTCTTTAGTCCGGCTGTGCCTTTGGTTTAGAACATCGGAGTCACCTAGTGCAG”, the binding signal is 8120 fluorescence intensity (a.u.).

As for “TATTCCATTATCTTCAGGTGAATTGCCTGTACTTTGTCTTCGGAGTCACCTAGTGCAG”, the binding signal was 8360 fluorescence intensity (a.u.).

Turning to “TCCTTTCCGCCACTCGCCGCCGCCGCCGCCGCCGGGGCGGCGGAGTCACCTAGTGCAG”, the binding signal was 9120 fluorescence intensity (a.u.).

Values taken from paper PMC7819943, “Rice protein-binding microarrays: a tool to detect cis-acting elements near promoter regions in rice”.
